For eight molecules, T/C and survivor count results are on record in PubChem BioAssay AID258 (DTP/NCI, 2004).

The list does not hold the whole screen: it is rich in T/C values a quarter to a half above the control, in often repeated tests (any T/C) and in doses without a T/C. Further doses and runs are listed elsewhere. T/C gives the treated animals as a percentage of the vehicle group. Some doses have a count of surviving animals in place of a T/C: the source holds a T/C of zero for them, seemingly a mark for toxic or unscored doses. Counts of survivors are from the toxicity check (mostly the fifth day) where no day follows; animals may have died later. Schedules are NCI's codes, read here as Q, the interval in days (D) or hours (H), X, the number of doses. Some schedules carry Z or #; the key to these is not given. For survival time, this PubChem deposit counts one and a half times the control or more as active, and values a quarter to a half above the control carry no call in these data; other NCI protocols may use other cut-offs. Some entries were tested several times; the results are listed from low to high.

In the assay the test system is CD2F1 mice, L1210 leukemia sc, survival T/C. The assay is described as follows: NCI In Vivo Anticancer Drug Screen. Data for tumor model L1210 Leukemia (subcutaneous) in CD2F1 (CDF1) mice. Particulars: T/C endpoint: median survival time, higher T/C = longer survival. The method in brief: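 Mice with transplanted tumor dosed; survival/tumor size read; T/C vs vehicle controls.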

Where [1] appears, read: dose: 65.0 mg/kg/injection, schedule: Q01DX Z (sc), vehicle: methylcellulose (MC).
The mark [2] stands for this setting: dose: 108.0 mg/kg/injection, schedule: Q01DX Z (sc), vehicle: methylcellulose (MC).

Take `CN(C)CCN1C(=O)c2cccc3cc(N)cc(c23)C1=O`: the T/C is, setting by setting: (dose: 10.0 mg/kg/injection, schedule: Q01DX009 (ip), vehicle: acid diluted with saline) 125 and 136 % of control; (dose: 16.0 mg/kg/injection, schedule: Q01DX009 (ip), vehicle: acid diluted with saline) 144 % of control; (dose: 24.0 mg/kg/injection, schedule: Q01DX009 (ip), vehicle: acid diluted with saline) 125 and 132 % of control.

In the case of `O=C(CCBr)N1CCN(C(=O)CCBr)CC1`, the T/C runs as follows: (dose: 130.0 mg/kg/injection, schedule: Q01DX Z (sc), vehicle: methylcellulose (MC)) 133 % of control; (dose: 216.0 mg/kg/injection, schedule: Q01DX Z (sc), vehicle: methylcellulose (MC)) 133 % of control.

As to `N#Cc1c(-c2ccc(F)cc2)c(-c2ccc(F)cc2)nn(CCO)c1=O`, the T/C (dose: 500.0 mg/kg/injection, schedule: Q01DX005 (ip), vehicle: distilled water + Tween-80 + alcohol) is 126 % of control.

`CN1c2c(nc(N)[nH]c2=O)NCC1CCNc1ccc(C(=O)NC(CCC(=O)O)C(=O)O)cc1` (stereo not drawn): the T/C by setting is: (dose: 25.0 mg/kg/injection, schedule: Q03HX024 (ip), vehicle: other) 133 % of control; (dose: 50.0 mg/kg/injection, schedule: Q01DX009 (ip), vehicle: other) 133 % of control; (dose: 50.0 mg/kg/injection, schedule: Q01DX Z (ip), vehicle: other) 144 % of control; (dose: 50.0 mg/kg/injection, schedule: Q03HX024 (ip), vehicle: other) 133 % of control; (dose: 100.0 mg/kg/injection, schedule: Q01DX009 (ip), vehicle: other) 133 % of control; (dose: 100.0 mg/kg/injection, schedule: Q01DX Z (ip), vehicle: other) 133 % of control. Moreover, the T/C is 144 % of control (dose: 100.0 mg/kg/injection, schedule: Q03HX024 (ip), vehicle: other); 145 % of control (dose: 200.0 mg/kg/injection, schedule: Q01DX Z (ip), vehicle: other); 138 % of control (dose: 200.0 mg/kg/injection, schedule: Q03HX024 (ip), vehicle: other); 133 % of control (dose: 800.0 mg/kg/injection, schedule: Q01DX009 (ip), vehicle: other); 144 % of control (dose: 800.0 mg/kg/injection, schedule: Q01DX Z (ip), vehicle: other, evaluated on day 26); 140 % of control (dose: 800.0 mg/kg/injection, schedule: Q01DX Z (ip), vehicle: other, evaluated on day 30). Besides, the T/C is 133 % of control (dose: 800.0 mg/kg/injection, schedule: Q04DX003 (ip), vehicle: other) and 130 % of control (dose: 1600.0 mg/kg/injection, schedule: Q01DX Z (ip), vehicle: other).

`N[C@H](C(=O)O)[C@@H]1CC(Cl)=NO1`: the T/C is, setting by setting: (dose: 4.0 mg/kg/injection, schedule: Q01DX009 (sc), vehicle: saline) 146 % of control; (dose: 8.0 mg/kg/injection, schedule: Q01DX009 (sc), vehicle: saline) 149 % of control; (dose: 16.0 mg/kg/injection, schedule: Q01DX009 (sc), vehicle: saline) 147 % of control; (dose: 32.0 mg/kg/injection, schedule: Q01DX009 (sc), vehicle: saline) 131 % of control; (dose: 64.0 mg/kg/injection, schedule: Q01DX009 (sc), vehicle: saline) 128 % of control; (dose: 128.0 mg/kg/injection, schedule: Q01DX009 (sc), vehicle: saline) 128 % of control.

In the case of `O=C(Nc1ccc(NC2=NCCN2)cc1)c1cccc(C(=O)Nc2ccc(NC3=NCCN3)cc2)c1`, under “dose: 65.0 mg/kg/injection, schedule: Q01DX Z (sc), vehicle: water”, the survivor count is 3 of 8.

Turning to `COc1cc([C@@H]2c3cc4c(cc3[C@H](OC(C)=O)[C@H]3COC(=O)[C@@H]23)OCO4)cc(OC)c1OC`, the survivor count is, setting by setting: under setting [1], 6 of 10; under setting [2], 1 of 10; (dose: 180.0 mg/kg/injection, schedule: Q01DX Z (sc), vehicle: methylcellulose (MC)) 4 of 10; (dose: 300.0 mg/kg/injection, schedule: Q01DX Z (sc), vehicle: methylcellulose (MC)) 5 of 10.

Consider `COc1cc([C@@H]2c3cc4c(c(O)c3C[C@H]3COC(=O)[C@@H]32)OCO4)cc(OC)c1O`, for which the survivor count is 0 of 10 (dose: 5.0 mg/kg/injection, schedule: Q01DX Z (sc), vehicle: methylcellulose (MC)); 3 of 10 (dose: 8.4 mg/kg/injection, schedule: Q01DX Z (sc), vehicle: methylcellulose (MC)); 0 of 10 (dose: 14.0 mg/kg/injection, schedule: Q01DX Z (sc), vehicle: methylcellulose (MC)); 3 of 10 (dose: 23.0 mg/kg/injection, schedule: Q01DX Z (sc), vehicle: methylcellulose (MC)); 2 of 10 (dose: 39.0 mg/kg/injection, schedule: Q01DX Z (sc), vehicle: methylcellulose (MC)); 1 of 10 under setting [1]. Also, under setting [2], the survivor count is on record as 0 of 10.
